Results are given in words; binding and its absence hold for the method and conditions named. In cells and extracts the contact can be indirect. Some results given as binding are weak or reduced against the parent protein; the word gives no strength. For part of these data: Sequences can lack the tags named with a protein.

Amino acid sequences for entries named in this document (tags omitted). A change or cut given only in a name is not applied to a line headed by its entry.
UniProt O96017: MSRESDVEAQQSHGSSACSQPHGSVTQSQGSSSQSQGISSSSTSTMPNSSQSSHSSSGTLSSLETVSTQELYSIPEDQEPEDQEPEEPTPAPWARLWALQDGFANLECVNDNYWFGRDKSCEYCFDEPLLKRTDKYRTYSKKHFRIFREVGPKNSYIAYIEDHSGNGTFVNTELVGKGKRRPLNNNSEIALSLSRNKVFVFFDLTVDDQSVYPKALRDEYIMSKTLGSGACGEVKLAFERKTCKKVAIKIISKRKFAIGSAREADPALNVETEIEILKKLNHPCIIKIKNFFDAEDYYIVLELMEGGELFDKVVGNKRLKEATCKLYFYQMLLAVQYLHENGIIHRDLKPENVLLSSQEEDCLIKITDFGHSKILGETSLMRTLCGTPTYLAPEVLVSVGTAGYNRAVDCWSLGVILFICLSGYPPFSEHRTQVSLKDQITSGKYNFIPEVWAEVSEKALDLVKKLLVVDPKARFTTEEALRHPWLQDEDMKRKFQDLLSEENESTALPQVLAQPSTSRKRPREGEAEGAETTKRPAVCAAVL
UniProt Q8N884: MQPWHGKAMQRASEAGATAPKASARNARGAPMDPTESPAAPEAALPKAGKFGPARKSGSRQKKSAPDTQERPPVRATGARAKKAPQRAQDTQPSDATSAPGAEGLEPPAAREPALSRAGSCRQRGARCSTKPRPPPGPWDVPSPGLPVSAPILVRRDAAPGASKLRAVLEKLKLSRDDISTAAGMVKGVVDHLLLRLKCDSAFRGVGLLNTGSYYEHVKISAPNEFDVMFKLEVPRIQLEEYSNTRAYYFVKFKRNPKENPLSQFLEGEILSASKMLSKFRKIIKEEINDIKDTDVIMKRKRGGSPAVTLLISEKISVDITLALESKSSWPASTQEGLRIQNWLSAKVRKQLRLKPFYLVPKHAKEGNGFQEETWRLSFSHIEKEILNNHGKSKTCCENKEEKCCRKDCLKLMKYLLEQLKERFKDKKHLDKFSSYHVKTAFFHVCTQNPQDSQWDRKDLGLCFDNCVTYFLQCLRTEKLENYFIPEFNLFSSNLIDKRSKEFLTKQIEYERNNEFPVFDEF

In test [1] the target is T1, TRIM41, HA-tagged (human) (UniProt Q8WV44).
T1 sequence: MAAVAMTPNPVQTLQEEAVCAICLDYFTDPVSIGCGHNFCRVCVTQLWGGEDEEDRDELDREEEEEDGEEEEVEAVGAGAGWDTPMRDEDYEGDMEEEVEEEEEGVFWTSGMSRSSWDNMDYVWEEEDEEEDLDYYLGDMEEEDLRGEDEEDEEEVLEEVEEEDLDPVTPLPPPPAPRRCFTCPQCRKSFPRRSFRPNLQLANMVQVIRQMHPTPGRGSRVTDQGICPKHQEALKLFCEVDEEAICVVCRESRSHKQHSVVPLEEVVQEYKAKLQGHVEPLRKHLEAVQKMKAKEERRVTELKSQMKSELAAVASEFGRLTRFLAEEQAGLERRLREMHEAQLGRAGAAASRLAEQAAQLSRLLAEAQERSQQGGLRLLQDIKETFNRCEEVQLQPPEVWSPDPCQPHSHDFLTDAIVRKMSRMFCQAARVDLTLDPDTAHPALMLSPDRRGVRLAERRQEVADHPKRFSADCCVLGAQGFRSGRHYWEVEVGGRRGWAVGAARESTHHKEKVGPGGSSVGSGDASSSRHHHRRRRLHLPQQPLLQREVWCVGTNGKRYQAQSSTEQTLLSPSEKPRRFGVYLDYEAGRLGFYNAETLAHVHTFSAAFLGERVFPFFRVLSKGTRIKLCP
Description: proximity ligation; HeLa cells on coverslips, fixed with 4% paraformaldehyde, permeabilised with 0.5% Triton X-100; Duolink In Situ Red Starter Kit; some panels after DNA damage, with BML-277 or with cGAS overexpressed or depleted.

For test [2], the target named is Checkpoint kinase CHK2, wild type (human) (UniProt O96017). Described as above.
Test [3] concerns the target T1, TRIM41, HA-tagged (human). Description: co-IP; transfected cells (HEK293T or HeLa) lysed 24 h post-transfection in 20 mM HEPES pH 8.0, 150 mM NaCl, 0.2 mM EDTA, 1% NP-40, 5% glycerol, sonicated; antibody-conjugated beads, 4 °C overnight; Western blot; some panels after etoposide (100 µg/mL), with the CHK2 inhibitor BML-277, with olaparib, or with cGAS overexpressed, knocked down or knocked out. For orientation: Immunoblotting shows a protein as a band on a membrane.

For test [4], the target named is Checkpoint kinase CHK2, wild type (human) (UniProt O96017). Described as above.

For “Cyclic GMP-AMP synthase (cGAS), wild type, expressed in human cells (from UniProt Q8N884 1-522)”, the binding entry in test [1], in test [2], in test [3] and in test [4] was “binds” throughout.

As for “cGAS D408N (cancer-associated mutant) (from UniProt Q8N884 1-522)”, the binding result in test [3] and in test [4] was “binds” in each case.

“cGAS E383K (cancer-associated mutant) (from UniProt Q8N884 1-522)”: the binding result in test [3] and in test [4] was “binds” in each case.

Take “cGAS L377P (cancer-associated mutant) (from UniProt Q8N884 1-522)”: the binding entry in test [3] and in test [4] was “binds” throughout.

For the substance “cGAS P486L (cancer-associated mutant) (from UniProt Q8N884 1-522)”, the binding entry in test [3] and in test [4] was “binds” each time.

With cGAS S120A (from UniProt Q8N884 1-522), the binding entry in test [1] and in test [3] was “binds” throughout.

On to cGAS S305A (from UniProt Q8N884 1-522), for which the binding result in test [1] and in test [3] was “binds” in each case.

As to “cGAS S345L (cancer-associated mutant) (from UniProt Q8N884 1-522)”, the binding result in test [3] and in test [4] was “binds” throughout.

These data come from PMC10716122.
